From patent US10047091B2, “Ionic liquid, lubricating agent, and magnetic recording medium” (Dexerials Corporation, priority 2012, dated 2018)

Assay: tape durability test (friction, still, shuttle)
Conditions: for Still durability after heating: after heating test at 100° C. for 10 min
[1] = −5° C., time until output decreased by −3 dB

Row | Structure (SMILES) | Still durability (40° C., 30% RH) [min] | Still durability after heating (40° C., 30% RH) [min] | Coefficient of friction after 100 times of shuttle runs (40° C., 90% RH) | Coefficient of friction after 100 times of shuttle runs (−5° C.) | Still durability after heating (−5° C.) [min] | Still durability [1] [min]
1 | CCCCCCCCCCCCCCCCCCN.O=S(=O)(O)C(F)(F)C(F)(F)C(F)(F)C(F)(F)C(F)(F)C(F)(F)C(F)(F)C(F)(F)F [Ionic liquid 10] | >60 | >60 | 0.23 | 0.19 | >60 | >60
2 | CCCCCCCCCCCCCCCCCCN.O=S1(=O)NS(=O)(=O)C(F)(F)C(F)(F)C1(F)F [Ionic liquid 14, n-octadecylamine-cyclo-hexafluoropropane-1,3-bis(sulfonyl)imide salt] | >60 | >60 | 0.24 | 0.21 | >60 | >60
3 | CCCCCCCCN.O=S(=O)(O)C(F)(F)F [Comparative ionic liquid 4, reference compound] | 39 |  | 0.30 | 0.29 |  | 35
4 | CCCCCCCCCCCCCCCCCCN.OCC(F)(F)C(F)(F)C(F)(F)C(F)(F)C(F)(F)C(F)(F)C(F)(F)F [Comparative ionic liquid 7, reference compound] | >60 | 16 | 0.26 | 0.23 | 12 | >60
5 | CCCCCCCCCCCCCCCCCCN.O=S(=O)(NS(=O)(=O)C(F)(F)C(F)(F)C(F)(F)C(F)(F)F)C(F)(F)C(F)(F)C(F)(F)C(F)(F)F [Ionic liquid 13, n-octadecylamine-bisnonafluorobutane sulfonylimide salt] | >60 | >60 | 0.22 | 0.2 | >60 | >60
6 | C1CCC2=NCCCN2CC1.O=S(=O)(O)C(F)(F)C(F)(F)C(F)(F)C(F)(F)C(F)(F)C(F)(F)C(F)(F)C(F)(F)F [Comparative ionic liquid 8, DBU pentadecafluorooctane sulfonic acid salt, reference compound] | 16 | 8 | 0.49 | 0.45 | 14 | 18
7 | CCCCCCCCCCCCCCCCCCC1CCCCN2CCCN=C12.O=S1(=O)NS(=O)(=O)C(F)(F)C(F)(F)C1(F)F (stereo not shown) [Ionic liquid 16, C18-DBU cyclo-hexafluoropropane-1,3-bis(sulfonyl)imide salt] | >60 | >60 | 0.26 | 0.23 | >60 | >60
8 | CCCCCCCCCCCCCCCCCCC1CCCCN2CCCN=C12.O=S(=O)(O)C(F)(F)C(F)(F)C(F)(F)C(F)(F)C(F)(F)C(F)(F)C(F)(F)C(F)(F)F (stereo not shown) [Ionic liquid 15, 6-n-octadecyl-1,8-diazabicyclo[5.4.0]-7-undecene (C18-DBU) pentadecafluorooctane sulfonic acid salt] | >60 | >60 | 0.26 | 0.22 | >60 | >60
9 | CCCCCCCCCCCCCCN.O=S(=O)(O)C(F)(F)F [Ionic liquid 6] | >60 |  | 0.21 | 0.20 |  | >60
10 | CCCCCCCCCCCCCCCCCCN1CCCN2CCCN=C12.O=S(=O)(O)C(F)(F)C(F)(F)C(F)(F)C(F)(F)C(F)(F)C(F)(F)C(F)(F)C(F)(F)F [Ionic liquid 17, 7-n-octadecyl-1,5,7-triazabicyclo[4.4.0]-5-decene (C18-TBD) pentadecafluorooctane sulfonic acid salt] | >60 | >60 | 0.28 | 0.24 | >60 | >60
11 | C1CN=C2NCCCN2C1.O=S(=O)(O)C(F)(F)C(F)(F)C(F)(F)C(F)(F)C(F)(F)C(F)(F)C(F)(F)F [Comparative ionic liquid 9, TBD pentadecafluoro sulfonic acid salt, reference compound] | 14 | 10 | 0.55 | 0.5 | 12 | 16
12 | CCCCCCCCCCCCCCCCCCN1CCCN2CCCN=C12.O=S1(=O)NS(=O)(=O)C(F)(F)C(F)(F)C1(F)F [Ionic liquid 18, C18-TBD cyclo-hexafluoropropane-1,3-bis(sulfonyl)imide salt] | >60 | >60 | 0.27 | 0.23 | >60 | >60
13 | CCCCCCCCCCCCCCCCCCN.O=C(O)C(F)(F)C(F)(F)C(F)(F)C(F)(F)C(F)(F)C(F)(F)C(F)(F)F [Comparative ionic liquid 2, reference compound] | >60 | 16 | 0.25 | 0.21 | 12 | >60
14 | CCCCCCCCCCCCCCCCCCN.O=C(O)C(F)(F)C(F)(F)C(F)(F)C(F)(F)C(F)(F)C(F)(F)C(F)(F)F [Comparative ionic liquid 6, reference compound] | >60 | 36 | 0.25 | 0.22 | 45 | >60
15 | CCCCCCCCC=CCCCCCCCCN.O=S(=O)(O)C(F)(F)F [Ionic liquid 8] | >60 |  | 0.22 | 0.22 |  | >60
16 | CC(C)CN.O=S(=O)(O)C(F)(F)F [Comparative ionic liquid 5, reference compound] | 25 |  | 0.41 | 0.36 |  | 15
17 | CCCCCCCCCCCCCCCC1CCCCN2CCCN=C12.O=S(=O)(O)C(F)(F)C(F)(F)C(F)(F)C(F)(F)C(F)(F)C(F)(F)C(F)(F)C(F)(F)F [Ionic liquid 11] | >60 | >60 | 0.23 | 0.2 | >60 | >60
